Assay results published in paper PMC5796995 (Oncotarget, 2017).

Assay: in vitro
Conditions: human, Caco-2
Description: Assay plates containing 12 wells of 21-day Caco-2 monolayers were provided by MB Biosciences. Monolayer integrity was verified using transepithelial electrical resistance measurements (TEER) prior to assay. Treatment solutions of AFB1, AFB2a, and AFB2a-Arg were prepared in the provided Hank's buffered salt solution (HBSS) with a pH of 7.4 and a final DMSO concentration of 0.2%. Caco-2 monolayers were first rinsed with HBSS and then the apical chamber was filled with 500 μL of test compound solution while the basal chamber was filled with 1500 μL of blank HBSS (both chambers were kept at pH 7.4). Plates were incubated at 37°C for 2 hours to allow compound equilibration. Compound concentration was measured at t = 0 hrs and t = 2 hours by HPLC-MS. Permeability (Papp) was calculated as follows: Papp=dQ/dt×1/A×C0
Where dQ/dt is the amount of translocated material over incubation time (nmol/s), A is the area of the insert (cm^2), and C0 is the initial concentration of the test compound applied. […] ER was calculated as follows: ER=Papp(Basal→Apical)/Papp(Apical→Basal)

CC(C)NCC(O)COc1ccc(CC(N)=O)cc1 (stereo not shown) [atenolol, reference compound]
Papp: < 0.5 ×10⁻⁶ cm/s
